Publication PMC11006759
Results are given in words; binding and its absence hold for the method and conditions named. In cells and extracts the contact can be indirect. Binding calls can cover weak binding; strength is not graded here.

Legend:
[1] = molecular target: T1, glutamine-rich protein 2 (QRICH2) (mouse (endogenous in mouse testes)) (UniProt Q3V2A7); test: co-IP; total proteins from mouse testes incubated with 5-10 µl target antibodies overnight at 4 °C, Protein A/G magnetic beads 60 min at room temperature, eluted in 1xSDS, western blot
T1 sequence: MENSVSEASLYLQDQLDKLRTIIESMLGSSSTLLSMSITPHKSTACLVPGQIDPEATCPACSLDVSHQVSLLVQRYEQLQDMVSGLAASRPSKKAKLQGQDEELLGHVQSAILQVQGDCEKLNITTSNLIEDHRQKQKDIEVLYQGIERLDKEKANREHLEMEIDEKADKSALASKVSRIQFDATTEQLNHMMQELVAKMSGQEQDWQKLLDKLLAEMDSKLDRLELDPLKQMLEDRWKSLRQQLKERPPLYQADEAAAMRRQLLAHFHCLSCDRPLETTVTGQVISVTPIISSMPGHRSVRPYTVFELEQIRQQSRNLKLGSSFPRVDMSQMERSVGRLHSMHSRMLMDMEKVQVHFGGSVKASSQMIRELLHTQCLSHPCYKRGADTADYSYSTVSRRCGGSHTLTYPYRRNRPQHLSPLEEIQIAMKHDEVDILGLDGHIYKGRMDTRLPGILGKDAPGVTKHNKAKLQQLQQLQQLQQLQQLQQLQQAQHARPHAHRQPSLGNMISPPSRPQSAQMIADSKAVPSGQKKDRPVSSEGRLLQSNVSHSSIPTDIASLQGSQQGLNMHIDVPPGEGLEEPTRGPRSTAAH

[2] = molecular target: T1, glutamine-rich protein 2 (QRICH2) (mouse (endogenous in mouse testes)); test: proximity ligation; Duolink In Situ PLA on sperm cells fixed with 4% PFA and permeabilized with 0.3% Triton X-100; rabbit anti-QRICH2 and mouse anti-α-TUBULIN primary antibodies; signal within 40 nm

Question: With “α-TUBULIN (mouse (endogenous in mouse testes))” as the substance, how does the binding [1] read?
Answer: binds

Question: What about the binding [2] of the same substance?
Answer: binds
